From paper PMC5706798 come the findings set out here.

Results are given in words; binding and its absence hold for the method and conditions named. Binding seen in cells or lysates may run through a third protein. Some binding calls cover weakened binding; strength is not graded here.

This test has as its target PRPF8 (human (endogenous in U2OS)) (UniProt Q6P2Q9). Kind of test: co-IP; endogenous proteins of U2OS cells treated with 10 Gy IR and 2 h at 37°C; lysed 3 h at 4°C in ELB buffer (50 mM HEPES, 250 mM NaCl, 5 mM EDTA, 0.1% IGEPAL) with phosSTOP and benzonase, sonicated; IP with antibodies against PRPF8, BRCA1 or control IgG, protein-G Dynabeads; immunoblot. On the technique in general: A western blot detects proteins with antibodies after separation by electrophoresis.

B1: XAB2 (protein, UniProt Q9HCS7 1-855)
chain: MVVMARLSRPERPDLVFEEEDLPYEEEIMRNQFSVKCWLRYIEFKQGAPKPRLNQLYERALKLLPCSYKLWYRYLKARRAQVKHRCVTDPAYEDVNNCHERAFVFMHKMPRLWLDYCQFLMDQGRVTHTRRTFDRALRALPITQHSRIWPLYLRFLRSHPLPETAVRGYRRFLKLSPESAEEYIEYLKSSDRLDEAAQRLATVVNDERFVSKAGKSNYQLWHELCDLISQNPDKVQSLNVDAIIRGGLTRFTDQLGKLWCSLADYYIRSGHFEKARDVYEEAIRTVMTVRDFTQVFDSYAQFEESMIAAKMETASELGREEEDDVDLELRLARFEQLISRRPLLLNSVLLRQNPHHVHEWHKRVALHQGRPREIINTYTEAVQTVDPFKATGKPHTLWVAFAKFYEDNGQLDDARVILEKATKVNFKQVDDLASVWCQCGELELRHENYDEALRLLRKATALPARRAEYFDGSEPVQNRVYKSLKVWSMLADLEESLGTFQSTKAVYDRILDLRIATPQIVINYAMFLEEHKYFEESFKAYERGISLFKWPNVSDIWSTYLTKFIARYGGRKLERARDLFEQALDGCPPKYAKTLYLLYAQLEEEWGLARHAMAVYERATRAVEPAQQYDMFNIYIKRAAEIYGVTHTRGIYQKAIEVLSDEHAREMCLRFADMECKLGEIDRARAIYSFCSQICDPRTTGAFWQTWKDFEVRHGNEDTIKEMLRIRRSVQATYNTQVNFMASQMLKVSGSATGTVSDLAPGQSGMDDMKLLEQRAEQLAAEAERDQPLRAQSKILFVRSDASREELAELAQQVNPEEIQLGEDEDEDEMDLEPNEVRLEQQSVPAAVFGSLKED
On to B1, for which the binding entry is “binds”.
